Some of the results follow.
Key:
Test in all cases: log2 fold change, soluble protein after heating vs DMSO (PISA); higher = thermal stabilisation; K562 lysate, 10 uM; active = over 0.2 and 3.5 SD of the protein, either way, in both replicates (recomputed)
[1] = compound: C1=CC=C(C=C1)[C@H](COC2=CC3=C(C=C2)NC(=O)N3)NC(=O)C4=CC=CN(C4=O)CC5=CC(=C(C=C5)F)F
In short: (§1)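 Thermal stability, expressed as log-two fold change relative to solvent controls, is given from duplicates. Crude K562 extract in PBS pH 7.4 with 1 mM MgCl2, at 1 mg/mL protein, was treated with 10 μM compound for 30 min and heated in aliquots for 3 min across 48°C-58°C. After pooling, adjustment to 0.5% NP-40 at 4°C and centrifugation at 21,000xg for 90 min, supernatant protein was measured by TMTpro 16plex LC-MS/MS with channel sums equalised.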

Sequences of proteins named here, by UniProt entry; tags and fusion partners are left off. A change or cut given only in a name is not applied to a line headed by its entry.
UniProt P22692: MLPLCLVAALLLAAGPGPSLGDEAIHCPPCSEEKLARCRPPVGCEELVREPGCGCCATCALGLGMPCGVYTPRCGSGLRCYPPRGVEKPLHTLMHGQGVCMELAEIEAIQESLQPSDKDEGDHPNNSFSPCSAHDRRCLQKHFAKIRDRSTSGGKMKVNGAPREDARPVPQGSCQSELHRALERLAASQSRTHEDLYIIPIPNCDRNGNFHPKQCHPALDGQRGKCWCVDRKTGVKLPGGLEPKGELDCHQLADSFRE
UniProt Q9Y2F5: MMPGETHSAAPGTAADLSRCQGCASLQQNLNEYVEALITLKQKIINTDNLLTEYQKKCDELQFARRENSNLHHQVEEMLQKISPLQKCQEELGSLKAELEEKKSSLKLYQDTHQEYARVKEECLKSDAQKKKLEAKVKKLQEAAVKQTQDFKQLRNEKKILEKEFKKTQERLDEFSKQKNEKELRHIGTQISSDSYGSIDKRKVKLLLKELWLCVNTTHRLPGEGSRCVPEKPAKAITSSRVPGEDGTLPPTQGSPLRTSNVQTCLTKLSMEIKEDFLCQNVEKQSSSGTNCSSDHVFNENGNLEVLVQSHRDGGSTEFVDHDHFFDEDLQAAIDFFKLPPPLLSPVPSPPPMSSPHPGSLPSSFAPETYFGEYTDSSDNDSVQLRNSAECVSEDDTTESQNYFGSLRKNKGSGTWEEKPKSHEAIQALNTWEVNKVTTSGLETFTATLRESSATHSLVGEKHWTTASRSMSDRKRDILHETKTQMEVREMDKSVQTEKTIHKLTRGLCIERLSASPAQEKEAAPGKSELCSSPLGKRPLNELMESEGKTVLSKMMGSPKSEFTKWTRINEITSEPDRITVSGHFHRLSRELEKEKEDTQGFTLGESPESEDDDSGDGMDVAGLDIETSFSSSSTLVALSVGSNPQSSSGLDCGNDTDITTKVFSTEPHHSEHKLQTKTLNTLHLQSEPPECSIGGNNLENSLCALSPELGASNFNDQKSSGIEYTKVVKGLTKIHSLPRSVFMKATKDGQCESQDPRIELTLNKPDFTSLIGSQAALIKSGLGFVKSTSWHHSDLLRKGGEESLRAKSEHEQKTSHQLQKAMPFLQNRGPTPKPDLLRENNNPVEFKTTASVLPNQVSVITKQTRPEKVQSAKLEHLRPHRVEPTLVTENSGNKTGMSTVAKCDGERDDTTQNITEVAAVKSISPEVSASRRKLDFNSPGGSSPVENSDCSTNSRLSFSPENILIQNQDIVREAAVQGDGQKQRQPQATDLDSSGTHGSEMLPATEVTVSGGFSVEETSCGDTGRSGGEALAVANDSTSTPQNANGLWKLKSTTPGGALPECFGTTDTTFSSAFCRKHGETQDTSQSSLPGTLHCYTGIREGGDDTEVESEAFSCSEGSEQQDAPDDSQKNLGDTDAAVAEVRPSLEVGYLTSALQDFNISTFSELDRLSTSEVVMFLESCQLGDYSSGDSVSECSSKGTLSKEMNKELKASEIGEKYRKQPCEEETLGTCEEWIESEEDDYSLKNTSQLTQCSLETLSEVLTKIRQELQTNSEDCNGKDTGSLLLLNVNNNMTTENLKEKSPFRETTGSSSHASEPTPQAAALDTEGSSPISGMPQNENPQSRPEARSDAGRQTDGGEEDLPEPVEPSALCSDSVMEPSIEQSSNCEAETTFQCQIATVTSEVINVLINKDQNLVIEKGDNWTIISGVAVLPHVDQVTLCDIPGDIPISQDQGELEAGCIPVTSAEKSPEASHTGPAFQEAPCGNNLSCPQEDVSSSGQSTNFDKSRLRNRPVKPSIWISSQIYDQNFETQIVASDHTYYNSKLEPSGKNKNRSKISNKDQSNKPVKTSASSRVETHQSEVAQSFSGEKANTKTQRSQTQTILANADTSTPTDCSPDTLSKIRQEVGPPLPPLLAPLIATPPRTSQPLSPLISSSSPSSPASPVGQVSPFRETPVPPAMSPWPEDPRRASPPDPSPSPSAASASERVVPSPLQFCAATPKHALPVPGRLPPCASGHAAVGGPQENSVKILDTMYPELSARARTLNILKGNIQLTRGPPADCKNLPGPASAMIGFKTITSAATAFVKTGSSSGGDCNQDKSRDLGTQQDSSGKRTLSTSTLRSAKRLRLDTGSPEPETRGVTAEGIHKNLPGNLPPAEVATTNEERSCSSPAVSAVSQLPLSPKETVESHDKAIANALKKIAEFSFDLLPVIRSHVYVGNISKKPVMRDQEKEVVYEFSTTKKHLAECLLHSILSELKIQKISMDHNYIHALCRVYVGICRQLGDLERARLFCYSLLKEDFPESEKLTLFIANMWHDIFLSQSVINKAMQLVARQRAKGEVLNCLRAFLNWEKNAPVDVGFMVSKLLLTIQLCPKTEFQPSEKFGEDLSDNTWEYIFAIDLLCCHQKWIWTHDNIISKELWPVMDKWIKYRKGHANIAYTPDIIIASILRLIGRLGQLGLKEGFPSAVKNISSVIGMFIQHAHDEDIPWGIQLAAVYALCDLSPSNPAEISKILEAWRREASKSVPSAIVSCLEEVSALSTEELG
UniProt P29218: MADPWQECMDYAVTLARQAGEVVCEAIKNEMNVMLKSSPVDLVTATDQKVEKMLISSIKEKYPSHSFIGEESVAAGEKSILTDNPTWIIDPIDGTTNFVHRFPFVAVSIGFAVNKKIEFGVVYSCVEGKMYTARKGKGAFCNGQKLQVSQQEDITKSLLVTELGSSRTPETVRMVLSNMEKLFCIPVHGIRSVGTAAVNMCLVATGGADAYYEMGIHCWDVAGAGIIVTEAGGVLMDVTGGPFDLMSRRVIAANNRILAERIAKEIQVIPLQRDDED
UniProt Q96D96: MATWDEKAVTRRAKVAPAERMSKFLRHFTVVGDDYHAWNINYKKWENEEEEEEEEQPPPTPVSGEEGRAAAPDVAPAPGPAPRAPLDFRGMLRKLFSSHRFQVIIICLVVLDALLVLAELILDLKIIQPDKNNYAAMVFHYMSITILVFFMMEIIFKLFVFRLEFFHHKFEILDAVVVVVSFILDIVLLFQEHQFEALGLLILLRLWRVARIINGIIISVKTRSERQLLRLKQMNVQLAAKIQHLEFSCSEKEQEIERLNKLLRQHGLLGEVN
UniProt Q96EW2: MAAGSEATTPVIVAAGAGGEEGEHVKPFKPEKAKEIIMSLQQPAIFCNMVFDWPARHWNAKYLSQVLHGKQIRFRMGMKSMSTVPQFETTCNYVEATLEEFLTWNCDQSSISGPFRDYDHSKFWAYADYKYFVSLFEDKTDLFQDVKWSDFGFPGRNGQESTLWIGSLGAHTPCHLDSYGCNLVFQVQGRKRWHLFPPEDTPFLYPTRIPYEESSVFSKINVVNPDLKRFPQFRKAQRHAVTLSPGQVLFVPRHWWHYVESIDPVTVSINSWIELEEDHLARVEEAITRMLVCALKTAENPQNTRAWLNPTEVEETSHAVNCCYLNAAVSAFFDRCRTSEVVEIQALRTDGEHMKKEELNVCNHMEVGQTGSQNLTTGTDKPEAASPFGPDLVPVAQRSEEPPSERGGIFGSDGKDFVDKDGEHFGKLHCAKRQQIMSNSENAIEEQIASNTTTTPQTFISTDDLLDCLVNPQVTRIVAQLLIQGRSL
UniProt Q14773: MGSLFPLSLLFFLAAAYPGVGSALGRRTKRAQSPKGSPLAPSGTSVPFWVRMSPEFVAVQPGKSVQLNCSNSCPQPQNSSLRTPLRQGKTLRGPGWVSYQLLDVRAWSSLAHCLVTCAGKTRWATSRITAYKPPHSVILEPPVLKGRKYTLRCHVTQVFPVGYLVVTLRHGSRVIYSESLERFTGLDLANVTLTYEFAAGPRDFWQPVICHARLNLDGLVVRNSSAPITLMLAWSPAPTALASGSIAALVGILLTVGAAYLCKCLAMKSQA
UniProt Q12906, whole entry, looked up: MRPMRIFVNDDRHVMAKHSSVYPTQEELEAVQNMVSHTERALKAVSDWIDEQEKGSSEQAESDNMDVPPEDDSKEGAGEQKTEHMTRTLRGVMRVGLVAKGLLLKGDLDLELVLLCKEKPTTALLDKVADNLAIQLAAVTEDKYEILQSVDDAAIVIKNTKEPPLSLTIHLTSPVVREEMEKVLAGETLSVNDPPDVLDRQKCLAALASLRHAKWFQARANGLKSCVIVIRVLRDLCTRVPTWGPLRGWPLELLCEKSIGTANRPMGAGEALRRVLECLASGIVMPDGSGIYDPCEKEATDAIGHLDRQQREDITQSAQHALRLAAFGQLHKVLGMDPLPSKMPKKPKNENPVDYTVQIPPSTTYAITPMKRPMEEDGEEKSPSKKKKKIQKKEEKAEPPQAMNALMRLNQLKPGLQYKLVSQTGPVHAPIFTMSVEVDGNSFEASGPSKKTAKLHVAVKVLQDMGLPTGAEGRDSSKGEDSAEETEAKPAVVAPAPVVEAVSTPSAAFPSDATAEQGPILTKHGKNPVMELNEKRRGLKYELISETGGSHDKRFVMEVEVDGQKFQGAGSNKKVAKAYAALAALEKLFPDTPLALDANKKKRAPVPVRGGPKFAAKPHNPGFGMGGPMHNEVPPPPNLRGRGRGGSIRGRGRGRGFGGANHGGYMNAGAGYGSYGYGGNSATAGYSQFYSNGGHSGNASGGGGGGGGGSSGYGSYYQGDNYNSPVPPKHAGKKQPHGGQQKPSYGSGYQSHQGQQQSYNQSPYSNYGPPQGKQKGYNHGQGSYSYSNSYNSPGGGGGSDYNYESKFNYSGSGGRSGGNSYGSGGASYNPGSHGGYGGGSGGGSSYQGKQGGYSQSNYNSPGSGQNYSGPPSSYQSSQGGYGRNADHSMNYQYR
UniProt Q9BYX4: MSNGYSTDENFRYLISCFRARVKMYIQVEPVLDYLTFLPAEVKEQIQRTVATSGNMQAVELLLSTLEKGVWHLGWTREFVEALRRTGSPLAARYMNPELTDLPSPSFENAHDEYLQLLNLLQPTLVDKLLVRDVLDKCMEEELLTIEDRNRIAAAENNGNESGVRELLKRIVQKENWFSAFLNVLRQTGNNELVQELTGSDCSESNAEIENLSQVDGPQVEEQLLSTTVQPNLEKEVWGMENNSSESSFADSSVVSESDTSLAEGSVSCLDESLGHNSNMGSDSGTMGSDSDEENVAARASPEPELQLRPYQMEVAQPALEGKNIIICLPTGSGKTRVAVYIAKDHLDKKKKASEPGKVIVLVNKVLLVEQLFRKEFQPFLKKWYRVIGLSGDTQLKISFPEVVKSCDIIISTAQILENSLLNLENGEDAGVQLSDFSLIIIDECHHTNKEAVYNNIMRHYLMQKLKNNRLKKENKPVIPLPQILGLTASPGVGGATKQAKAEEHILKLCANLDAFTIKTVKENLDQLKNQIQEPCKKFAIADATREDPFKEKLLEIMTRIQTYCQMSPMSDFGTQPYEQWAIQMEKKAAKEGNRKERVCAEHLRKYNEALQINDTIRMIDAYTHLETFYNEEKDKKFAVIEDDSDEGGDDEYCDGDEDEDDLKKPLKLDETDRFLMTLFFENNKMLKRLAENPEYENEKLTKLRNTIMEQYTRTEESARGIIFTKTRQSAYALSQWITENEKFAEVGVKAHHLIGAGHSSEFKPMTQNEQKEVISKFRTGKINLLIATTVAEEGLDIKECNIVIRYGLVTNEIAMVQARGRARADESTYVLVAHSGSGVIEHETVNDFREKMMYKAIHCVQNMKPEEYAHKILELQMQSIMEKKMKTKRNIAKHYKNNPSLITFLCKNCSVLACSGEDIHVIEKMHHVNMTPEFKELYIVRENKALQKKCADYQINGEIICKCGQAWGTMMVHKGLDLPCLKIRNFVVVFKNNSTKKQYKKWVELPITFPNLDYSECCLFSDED
UniProt Q6UWB1, whole entry, looked up: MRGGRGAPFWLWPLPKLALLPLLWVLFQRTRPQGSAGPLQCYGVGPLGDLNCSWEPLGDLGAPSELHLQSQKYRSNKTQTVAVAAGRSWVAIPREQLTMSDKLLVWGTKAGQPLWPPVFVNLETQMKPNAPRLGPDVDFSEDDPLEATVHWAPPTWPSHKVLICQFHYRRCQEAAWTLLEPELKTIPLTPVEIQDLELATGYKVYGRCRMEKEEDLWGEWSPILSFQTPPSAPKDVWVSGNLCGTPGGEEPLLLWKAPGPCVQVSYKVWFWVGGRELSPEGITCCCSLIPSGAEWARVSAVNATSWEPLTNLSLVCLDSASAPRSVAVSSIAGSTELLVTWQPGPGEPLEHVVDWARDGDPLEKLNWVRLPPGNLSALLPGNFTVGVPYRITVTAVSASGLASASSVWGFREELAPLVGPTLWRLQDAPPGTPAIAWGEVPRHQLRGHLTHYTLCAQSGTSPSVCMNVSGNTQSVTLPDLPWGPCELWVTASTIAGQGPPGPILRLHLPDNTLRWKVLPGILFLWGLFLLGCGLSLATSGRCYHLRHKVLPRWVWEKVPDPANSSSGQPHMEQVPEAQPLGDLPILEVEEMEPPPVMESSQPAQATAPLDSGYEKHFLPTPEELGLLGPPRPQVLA
UniProt Q6PI98, whole entry, looked up: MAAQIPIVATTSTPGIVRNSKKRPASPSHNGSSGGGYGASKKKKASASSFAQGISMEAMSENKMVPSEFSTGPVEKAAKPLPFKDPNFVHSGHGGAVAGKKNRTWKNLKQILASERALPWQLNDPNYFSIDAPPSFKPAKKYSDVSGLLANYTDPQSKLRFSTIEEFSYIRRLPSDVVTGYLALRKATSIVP

[2] = compound: CC1=C(SC2=C1C(=N[C@H](C3=NN=C(N32)C)CC(=O)N)C4=CC=C(C=C4)Cl)C
In short: as §1

[3] = compound: Cc1sc2c(c1C)C(c1ccc(Cl)cc1)=N[C@@H](CC(=O)OC(C)(C)C)c1nnc(C)n1-2
In short: as §1

[4] = compound: c1ccc([C@@H]2C[C@H]2NC2CCNCC2)cc1
In short: as §1

[5] = compound: CC1=C2C(=CC=C1)N=C(N(C2=O)C3=CC=CC=C3C)CN4C=NC5=C(N=CN=C54)N
In short: as §1

Measured: log2 fold change

IGFBP4 (UniProt P22692)
inactive: [1] 0.135 | [2] -0.099 | [3] -0.032 | [4] -0.171

IDH3B (UniProt O43837)
inactive: [1] 0.002 | [2] -0.004 | [5] -0.034 | [3] 0.037 | [4] -0.062

ICE1 (UniProt Q9Y2F5)
inactive: [1] 0.247 | [2] -0.06 | [3] 0.034 | [4] 0.019

IGKC (UniProt P01834)
inactive: [1] -0.017 | [2] -0.247 | [3] -0.095 | [4] -0.296

IMPA1 isoform 3 (UniProt P29218)
inactive: [1] 0.003 | [2] -0.03 | [5] -0.023 | [3] -0.003 | [4] 0.026

IGLC3 (UniProt P0DOY3)
inactive: [1] 0.295 | [2] -0.119 | [3] -0.536 | [4] -0.295

HVCN1 (UniProt Q96D96)
inactive: [1] 0.078 | [2] 0.019 | [4] -0.266

HTATIP2 isoform 3 (UniProt Q9BUP3)
inactive: [1] -0.024 | [2] -0.005 | [5] 0.036 | [3] 0.006 | [4] 0.055

HSPBAP1 (UniProt Q96EW2)
inactive: [1] 0.069 | [2] -0.022 | [3] 0.065 | [4] 0.006

ICAM4 (UniProt Q14773)
inactive: [1] -0.13 | [2] -0.169 | [3] 0.016 | [4] 0.03

ILF3 (UniProt Q12906)
inactive: [1] 0.063 | [2] -0.134 | [5] 0.077 | [3] -0.026 | [4] -0.267

IGHG3 (UniProt P01860)
inactive: [1] 1.15 | [2] -0.072 | [4] -0.281

IFIH1 (UniProt Q9BYX4)
inactive: [1] 0.059 | [2] -0.074 | [4] -0.133

IGHMBP2 (UniProt P38935)
inactive: [1] 0.021 | [2] 0.109 | [3] -0.028

IL27RA (UniProt Q6UWB1)
inactive: [1] -0.013 | [2] 0.088 | [3] -0.067 | [4] -0.05

HSPH1 isoform 2 (UniProt Q92598)
inactive: [1] 0.069 | [2] 0.389 | [3] -0.215

IFT22 (UniProt Q9H7X7)
inactive: [1] 0.06 | [2] 0.137 | [3] -0.153

INO80C isoform 4 (UniProt Q6PI98)
inactive: [1] -0.188 | [2] 0.034 | [3] -0.215

Three consecutive records from above:
IFIH1 (UniProt Q9BYX4)
inactive: [1] 0.059 | [2] -0.074 | [4] -0.133

IGHMBP2 (UniProt P38935)
inactive: [1] 0.021 | [2] 0.109 | [3] -0.028

IL27RA (UniProt Q6UWB1)
inactive: [1] -0.013 | [2] 0.088 | [3] -0.067 | [4] -0.05

The list continues.

HSPH1 (UniProt Q5TBM3)
inactive: [1] 0.209 | [2] 0.026

From the supplement of paper PMC10849652
